PubChem BioAssay AID1224827 | NIAID, 2016
Assay: 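Retest primary hits on a TNF reporter with six siRNAs per gene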 (follow-up of hits). Cells: RAW264.7 G9 mouse macrophage reporter clone. Reagent: single siRNA against mouse genes, 100 nM siRNA. Time to read-out: siRNA for 2 days, then LPS about 16 h. Treatment: bacterial lipopolysaccharide (LPS), 10 ng/ml, cells fixed after overnight (about 16 h) stimulation. Measurement: 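Imaged nuclear TNF reporter intensity, background removed, scaled per plate and to non-targeting control wells, as z-scores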. Direction: TNF reporter z-score, mean: higher = stronger Tnf promoter reporter signal. Hit rule: 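Active siRNA: replicate-mean z-score of 2 or more, or -2 or less; no calls for control wells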.
The deposit covers about 3,800 reagents; below is a part drawn at random. About 2,200 of them (57%) count as active. 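Active means a strong reporter change in either direction; calls are per siRNA, not per gene; qiagen siRNAs gave weaker effects.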 The numbers tell different reagents against one gene apart. Further read-outs or replicates are left out here.

How did the screen score Brd8 (bromodomain containing 8) #1?
TNF reporter z-score, mean: -0.511; Outcome: inactive

Which result is listed for Brd8 (bromodomain containing 8) #2?
TNF reporter z-score, mean: -1.37; Outcome: inactive

For Brd8 (bromodomain containing 8) #3, how do the results read?
TNF reporter z-score, mean: -3.69; Outcome: active

What is on record for Brd8 (bromodomain containing 8) #4?
TNF reporter z-score, mean: 1.39; Outcome: inactive

How did the screen score Brd8 (bromodomain containing 8) #5?
TNF reporter z-score, mean: 1.17; Outcome: inactive

For Brd8 (bromodomain containing 8) #6, how do the results read?
TNF reporter z-score, mean: -0.574; Outcome: inactive

For Gpd1l (glycerol-3-phosphate dehydrogenase 1-like) #1, what was measured?
TNF reporter z-score, mean: -3.64; Outcome: active

With Gpd1l (glycerol-3-phosphate dehydrogenase 1-like) #2, what does the deposit list?
TNF reporter z-score, mean: -4.14; Outcome: active

For Gpd1l (glycerol-3-phosphate dehydrogenase 1-like) #3, what was measured?
TNF reporter z-score, mean: -5.12; Outcome: active

What is on record for Gpd1l (glycerol-3-phosphate dehydrogenase 1-like) #4?
TNF reporter z-score, mean: 4.85; Outcome: active

With Gpd1l (glycerol-3-phosphate dehydrogenase 1-like) #5, what was measured?
TNF reporter z-score, mean: 0.566; Outcome: inactive

For Gpd1l (glycerol-3-phosphate dehydrogenase 1-like) #6, how do the results read?
TNF reporter z-score, mean: 0.42; Outcome: inactive

With Rpl11 (ribosomal protein L11) #1, what was measured?
TNF reporter z-score, mean: -3.02; Outcome: active

With Rpl11 (ribosomal protein L11) #2, what does the deposit list?
TNF reporter z-score, mean: -3.43; Outcome: active

For Rpl11 (ribosomal protein L11) #3, what does the deposit list?
TNF reporter z-score, mean: -4.25; Outcome: active

For Rpl11 (ribosomal protein L11) #4, how do the results read?
TNF reporter z-score, mean: 0.448; Outcome: inactive

What is on record for Rpl11 (ribosomal protein L11) #5?
TNF reporter z-score, mean: -2.39; Outcome: active

Which result is listed for Rpl11 (ribosomal protein L11) #6?
TNF reporter z-score, mean: -3.31; Outcome: active

3 entries already listed, arranged by “TNF reporter z-score, mean”, low to high:
Brd8 (bromodomain containing 8) #3 — TNF reporter z-score, mean: -3.69; Outcome: active
Brd8 (bromodomain containing 8) #2 — TNF reporter z-score, mean: -1.37; Outcome: inactive
Brd8 (bromodomain containing 8) #1 — TNF reporter z-score, mean: -0.511; Outcome: inactive

Continued.
For Dgcr8 (DGCR8, microprocessor complex subunit) #1, what was measured?
TNF reporter z-score, mean: -3.58; Outcome: active

For Dgcr8 (DGCR8, microprocessor complex subunit) #2, what was measured?
TNF reporter z-score, mean: -3.9; Outcome: active

For Dgcr8 (DGCR8, microprocessor complex subunit) #3, what was measured?
TNF reporter z-score, mean: -4.4; Outcome: active

With Dgcr8 (DGCR8, microprocessor complex subunit) #4, what does the deposit list?
TNF reporter z-score, mean: 1.14; Outcome: inactive

For Dgcr8 (DGCR8, microprocessor complex subunit) #5, how do the results read?
TNF reporter z-score, mean: -2.41; Outcome: active

Which result is listed for Dgcr8 (DGCR8, microprocessor complex subunit) #6?
TNF reporter z-score, mean: -2.81; Outcome: active

What is on record for Nhlrc2 (NHL repeat containing 2) #1?
TNF reporter z-score, mean: -4.46; Outcome: active

What is on record for Nhlrc2 (NHL repeat containing 2) #2?
TNF reporter z-score, mean: -5.3; Outcome: active

Which result is listed for Nhlrc2 (NHL repeat containing 2) #3?
TNF reporter z-score, mean: -5.33; Outcome: active

How did the screen score Nhlrc2 (NHL repeat containing 2) #4?
TNF reporter z-score, mean: 1.54; Outcome: inactive

For Nhlrc2 (NHL repeat containing 2) #5, what does the deposit list?
TNF reporter z-score, mean: 1.14; Outcome: inactive

For Nhlrc2 (NHL repeat containing 2) #6, how do the results read?
TNF reporter z-score, mean: -1.6; Outcome: inactive

For Mrps5 (mitochondrial ribosomal protein S5) #1, what does the deposit list?
TNF reporter z-score, mean: -2.89; Outcome: active

For Mrps5 (mitochondrial ribosomal protein S5) #2, what does the deposit list?
TNF reporter z-score, mean: -3.63; Outcome: active

With Mrps5 (mitochondrial ribosomal protein S5) #3, what does the deposit list?
TNF reporter z-score, mean: -4.16; Outcome: active

For Mrps5 (mitochondrial ribosomal protein S5) #4, what was measured?
TNF reporter z-score, mean: 4.07; Outcome: active

With Mrps5 (mitochondrial ribosomal protein S5) #5, what was measured?
TNF reporter z-score, mean: 3.96; Outcome: active

For Mrps5 (mitochondrial ribosomal protein S5) #6, how do the results read?
TNF reporter z-score, mean: -2.5; Outcome: active
